Values quoted from earlier work in patent US20120276225A1, “PHYTOESTROGENIC NUTRACEUTICAL COMPOSITION FROM PALM LEAF EXTRACT” (UNIVERSITI PUTRA MALAYSIA, priority 2009, published 2012).
At least one compound was matched to its structure with a doubt left.

System: vaginal epithelium of ovariectomised rats
Conditions: orally 0.5 mg/day/animal; cited from earlier work

For `C[C@]12CC[C@@H]3c4ccc(O)cc4CC[C@H]3[C@@H]1CC[C@@H]2O` [estradiol], the vaginal cornification is listed as “show vaginal cornification”.
